Laboratory results reported in article PMC8117158.
Results are given in words; binding and its absence hold for the method and conditions named. In cells and extracts the contact can be indirect. Some results given as binding are weak or reduced against the parent protein; the word gives no strength.

Protein sequences, listed by entry. Tags and fused reporters are not part of them.
UniProt P0A6B7: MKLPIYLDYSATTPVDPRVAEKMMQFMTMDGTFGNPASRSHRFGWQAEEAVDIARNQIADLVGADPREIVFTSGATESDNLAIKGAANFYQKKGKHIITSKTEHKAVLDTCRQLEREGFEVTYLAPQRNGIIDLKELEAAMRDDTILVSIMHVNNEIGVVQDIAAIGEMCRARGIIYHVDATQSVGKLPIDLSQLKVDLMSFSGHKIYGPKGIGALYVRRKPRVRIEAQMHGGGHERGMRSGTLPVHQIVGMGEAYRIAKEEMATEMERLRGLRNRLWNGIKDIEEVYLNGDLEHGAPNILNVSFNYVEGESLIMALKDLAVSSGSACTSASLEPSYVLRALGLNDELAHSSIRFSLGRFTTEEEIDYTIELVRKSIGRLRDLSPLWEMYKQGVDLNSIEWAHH
UniProt P0ACD4: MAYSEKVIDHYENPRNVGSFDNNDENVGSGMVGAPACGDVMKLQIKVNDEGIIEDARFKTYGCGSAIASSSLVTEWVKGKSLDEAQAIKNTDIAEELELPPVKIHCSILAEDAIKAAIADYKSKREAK

Target: IscS-H6 (E. coli K-12) (UniProt P0A6B7)
Test: pull-down; cells co-expressing the proteins treated with 1% formaldehyde (in vivo cross-linking); extracts loaded on Ni-chelating Sepharose in 20 mM Tris-HCl pH 7.9, 0.5 M NaCl, washed with 60 mM imidazole, eluted with 1 M imidazole; SDS-PAGE

binding: binds
Substance: IscU-S (from UniProt P0ACD4 1-128)
